Results as given in patent US20170355771A1 (Biogen, published 2017).
These are yes or no findings as the source states them, for the method shown. Some entries that bind do so weakly or less than the wild type.

The chains behind the UniProt entries cited, without tags or fusion partners. Where a name states a change or a piece, a line headed by the entry shows the natural chain unless it says otherwise.
UniProt P08514: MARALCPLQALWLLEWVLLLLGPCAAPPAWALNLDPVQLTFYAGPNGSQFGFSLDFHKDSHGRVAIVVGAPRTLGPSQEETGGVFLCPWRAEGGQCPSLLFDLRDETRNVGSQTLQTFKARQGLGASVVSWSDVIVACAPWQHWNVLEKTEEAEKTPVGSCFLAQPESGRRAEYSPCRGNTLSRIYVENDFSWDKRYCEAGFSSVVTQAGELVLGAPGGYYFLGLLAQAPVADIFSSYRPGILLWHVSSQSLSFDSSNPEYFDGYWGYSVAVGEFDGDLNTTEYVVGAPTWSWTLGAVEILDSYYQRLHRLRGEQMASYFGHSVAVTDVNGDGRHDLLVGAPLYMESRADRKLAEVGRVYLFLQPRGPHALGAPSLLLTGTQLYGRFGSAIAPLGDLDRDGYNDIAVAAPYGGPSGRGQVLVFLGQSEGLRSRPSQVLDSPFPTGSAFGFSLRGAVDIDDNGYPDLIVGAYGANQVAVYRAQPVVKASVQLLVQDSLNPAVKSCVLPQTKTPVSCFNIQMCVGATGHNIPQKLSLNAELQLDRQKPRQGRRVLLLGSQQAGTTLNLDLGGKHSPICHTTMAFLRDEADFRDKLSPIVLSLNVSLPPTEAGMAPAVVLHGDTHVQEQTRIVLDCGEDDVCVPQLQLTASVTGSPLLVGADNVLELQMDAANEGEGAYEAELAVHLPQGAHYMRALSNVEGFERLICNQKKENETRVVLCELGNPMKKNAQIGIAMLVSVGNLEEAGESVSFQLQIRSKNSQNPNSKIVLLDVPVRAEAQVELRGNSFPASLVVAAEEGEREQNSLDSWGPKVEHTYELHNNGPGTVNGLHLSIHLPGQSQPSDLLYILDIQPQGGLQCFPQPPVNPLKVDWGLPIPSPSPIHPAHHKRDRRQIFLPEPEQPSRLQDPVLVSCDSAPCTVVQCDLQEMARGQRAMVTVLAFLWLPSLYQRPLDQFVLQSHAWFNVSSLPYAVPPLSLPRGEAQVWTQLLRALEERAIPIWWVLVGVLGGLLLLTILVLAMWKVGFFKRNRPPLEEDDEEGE

Target: α subunit of GPIIb/IIIa (GPIIb) (human) (UniProt P08514)
Assay: characterization of hybridoma supernatant (subunit specificity assay)

binding: binds
B1: murine anti-GPIIb/IIIa antibody 34D10 (antibody, V domains shown)
VH: EVKLVESGGGLVKPGGSLKLSCAASGFTFSAYAMSWVRQTPEKRLEWVASISSGGTTYYPDSVKRRFTISRDNARNILYLQMSSLRSEDTAMYYCTRGGDYGYALDYWGQGTSVTVSS
VL: ENVLTQSPAIMSASLGEKVTMSCRASSSVNYMYWYQQKSDASPKLWIYYTSNLAPGVPARFSGSGSGNSYSLTISSMEGEDAATYYCQQFSSSPWTFGGGTKLEIK
